Data from article PMC6284747.
Results are given in words; binding and its absence hold for the method and conditions named. Some results given as binding are weak or reduced against the parent protein; the word gives no strength.

Columns and labels:
[1] = target: T1, Atox1 purified protein (recombinant human Atox1) (human), O00244; experiment: non-reducing Tricine SDS-PAGE with Western blot; Atox1 2.2x10^-5 M incubated in PBS with Cu(II) (ratio 1:1) and H2O2 (2.5-fold excess with respect to the cysteine residues of Atox1) for 20 hrs; 15% Tricine gel in non-reducing conditions, polyclonal anti-Atox1 blot; both purified; settings: remark: other sources report otherwise
T1 chain: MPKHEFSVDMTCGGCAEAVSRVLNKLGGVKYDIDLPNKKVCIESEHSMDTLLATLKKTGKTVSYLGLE

[2] = target: T2, Atox1 (endogenous, SH-SY5Y neuroblastoma cells) (human (endogenous in SH-SY5Y)), O00244; experiment: SDS-PAGE with Western blot of cell lysates; SH-SY5Y lysates (RIPA buffer) after 48 hrs of treatment with phendione or cuproindione at IC50 concentration, or 50 uM BCS; polyclonal anti-Atox1 blot, bands at higher MW; settings: remark: other sources report otherwise
T2 chain: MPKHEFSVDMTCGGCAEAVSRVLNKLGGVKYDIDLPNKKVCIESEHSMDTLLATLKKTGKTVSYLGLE

B1: Atox1 purified protein (recombinant human Atox1), O00244 1-68 (protein)
chain: MPKHEFSVDMTCGGCAEAVSRVLNKLGGVKYDIDLPNKKVCIESEHSMDTLLATLKKTGKTVSYLGLE
[1]
  binding: binds

B2: Atox1 (endogenous, SH-SY5Y neuroblastoma cells), O00244 1-68 (protein)
chain: MPKHEFSVDMTCGGCAEAVSRVLNKLGGVKYDIDLPNKKVCIESEHSMDTLLATLKKTGKTVSYLGLE
[2]
  binding: binds
